From PubChem BioAssay AID1347076 (National Center for Advancing Translational Sciences (NCATS), 2019)
The whole screen tested about 400,000 compounds, of which about 13,000 (3.2%) were called active. This list was built around the results that the source calls inconclusive (neither active nor inactive); the mix of calls is not that of the screen. Calls come from the whole dose curve; as a rule, active = well fitted cell-killing curve with a large enough effect; inconclusive = small, poorly fitted or top-dose-only effect, or effect the other way; inactive = flat fitted curve, though single readings scatter. Where the call is inconclusive, the potency comes from a doubtful curve fit.

test: qHTS assay for MDR1-selective chemotherapeutics: Primary screen using the drug-selected MDR subline cells KB-V1; conditions: KB-V1 MDR cells viability, CellTiter-Glo, 72 h; activity change, negative = cytotoxicity: at 46.1 µM (top of the series); note: nearly all actives have a fitted effect of over 60% in size
Method in brief: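 In this primary screen, KB-V1 cells overexpressing P-gp are incubated with library compounds (lowest to highest concentration) for 72 h at 37 degrees C before a luminescent ATP viability read.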
% is set by controls: 0 for no effect and ±100 for the full control effect; potency is the fitted concentration of half-maximal effect.

| SMILES | activity change, negative = cytotoxicity | Potency |
| --- | --- | --- |
| Cn1cc(Br)c(NC(=O)/C=C/C(=O)O)n1 | inactive: 8.01% |  |
| CN(C)CCn1c2c(c(SCC(=O)Nc3cccc(C(F)(F)F)c3)nc1=O)CCCC2 |  | inconclusive: 20.6 µM [cytotoxic, single point] |
| O=S(=O)(N/N=C/c1ccccc1OCc1ccc(Cl)cc1)c1ccccc1 |  | active: 16.4 µM |
| CCOC(=O)c1noc2c1CCC2 | inactive: 3.6% |  |
| COc1ccc(C(=O)c2c[nH]c3ccccc23)cc1 | inactive: -5.89% |  |
| O=C(NCCc1c[nH]c2ccccc12)C(=O)NCC1OCCCN1S(=O)(=O)c1ccc(F)cc1 (stereo unspecified) |  | inconclusive: 20.6 µM [cytotoxic, single point] |
| COc1ccc2c(c1)cc1n2CCN=C1NN |  | inconclusive: 29.1 µM [rising, single point] |
| O=C(COC(=O)C1CCN(S(=O)(=O)c2cccs2)CC1)Nc1ccc(F)cc1F |  | inconclusive: 7.31 µM [rising, partial curve] |
| CCOc1ccc(C=NNC(=O)c2cccc3ccccc23)cc1OCC |  | active: 23.1 µM |
| CC1=C(C(=O)OCc2ccccc2)C(c2ccc(N3CCOCC3)cc2)NC(=O)N1 (stereo unspecified) |  | inconclusive: 0.651 µM [cytotoxic, full curve] |
| S=C(Nc1ccc(Nc2ccccc2)cc1)NC1CCCCCC1 |  | inconclusive: 29.1 µM [cytotoxic, single point] |
| O=C(c1ccc(Cl)c(S(=O)(=O)N2CCCCCC2)c1)N1CCN(c2ccccc2O)CC1 |  | inconclusive: 8.2 µM [cytotoxic, partial curve] |
| COc1ccc(C)cc1-n1c(SCC(=O)Nc2cccc(C(=O)O)c2)nc2ccccc2c1=O |  | inconclusive: 20.6 µM [rising, single point] |
| CSc1cccc(NC(=O)/C=C/c2ccccc2)c1 | inactive: -12.9% |  |
| c1csc(C(c2nnnn2C2CCCC2)N2CCOCC2)c1 (stereo unspecified) |  | inconclusive: 29.1 µM [cytotoxic, single point] |
| CCOc1ccc(N2CC(O)(c3cccs3)[N+]3=C2CCCC3)cc1 (stereo unspecified) | inactive: 0.0954% |  |
| Cc1ccccc1N1CCN(C2CCCN(C(=O)CCC(F)(F)F)C2)CC1 (stereo unspecified) | inactive: -2.62% |  |
| CN(CC(=O)N(CCO)Cc1ccccc1)S(=O)(=O)c1ccc2c(c1)c(=O)n(C)c(=O)n2C |  | inconclusive: 16.4 µM [rising, single point] |
| Fc1cccc(C[n+]2csc3ccccc32)c1 | inactive: -16% |  |
| COc1ccc(CCNC(=O)C(=O)NCC2CCCN2S(=O)(=O)c2ccc(OC)cc2)cc1 (stereo unspecified) |  | inconclusive: 29.1 µM [cytotoxic, single point] |
| CC(=O)c1c(C)[nH]c(C2=NNC(=NCc3ccccc3)SC2)c1C | inactive: 5.18% |  |
| CCC(=O)Oc1ccc2c(c1)O/C(=C\c1ccco1)C2=O |  | inconclusive: 29.1 µM [rising, single point] |
| CN(C)c1cc[n+](CC[n+]2ccc(N(C)C)cc2)cc1 | inactive: 12.5% |  |
| Cc1cc(S(=O)(=O)Nc2ccc3oc4c(c3c2)CCCC4)ccc1Cl | inactive: 5.15% |  |

4 compounds drawn at random from those above, as already listed:

| SMILES | activity change, negative = cytotoxicity | Potency |
| --- | --- | --- |
| CSc1cccc(NC(=O)/C=C/c2ccccc2)c1 | inactive: -12.9% |  |
| O=S(=O)(N/N=C/c1ccccc1OCc1ccc(Cl)cc1)c1ccccc1 |  | active: 16.4 µM |
| c1csc(C(c2nnnn2C2CCCC2)N2CCOCC2)c1 (stereo unspecified) |  | inconclusive: 29.1 µM [cytotoxic, single point] |
| S=C(Nc1ccc(Nc2ccccc2)cc1)NC1CCCCCC1 |  | inconclusive: 29.1 µM [cytotoxic, single point] |

Going on with the list:

| SMILES | activity change, negative = cytotoxicity | Potency |
| --- | --- | --- |
| COC(=O)[C@@]12C[C@@H](CC(=O)NCc3ccccc3)C(=O)N(Cc3cccc4ccccc34)C1=CCC(C)(C)C2 |  | inconclusive: 13 µM [cytotoxic, partial curve, poor fit] |
| CCOc1ccc(CCNCc2c(C(=O)O)c(C)n(Cc3ccccc3F)c2C)cc1 |  | inconclusive: 16.4 µM [rising, single point] |
| CCOC(=O)N1CCN(C(=O)C[C@@H]2C[C@@]3(C(=O)OCC)CCCC=C3N(Cc3ccco3)C2=O)CC1 |  | inconclusive: 20.6 µM [cytotoxic, partial curve, poor fit] |
| O=C(c1nn2c(C(F)(F)F)cc(-c3cccs3)nc2c1Br)N1CCCc2ccccc21 |  | inconclusive: 3.66 µM [cytotoxic, full curve] |
| O=C(COC(=O)c1c[nH]c2ccccc12)NC1CCCC1 | inactive: 0% |  |
| C=CS(=O)(=O)c1c2cc(OC)ccc2nc2ccc(OC)cc12 |  | active: 20.6 µM |
| COc1ccc(C(C)C)cc1S(=O)(=O)n1cnc(C)c1 | inactive: 10.4% |  |
| COc1ccc(S(=O)(=O)CCC(=O)N2CC(=O)N(CCc3ccccc3)C(=O)C2)cc1 |  | inconclusive: 13 µM [rising, partial curve, poor fit] |
| COc1cccc(COC(=O)c2cc(S(=O)(=O)N3CCOCC3)ccc2Cl)c1OC |  | inconclusive: 18.4 µM [cytotoxic, single point] |
| OCCCCCN=c1cc(-c2ccccc2)oc2ccc(Cl)cc12 |  | inconclusive: 9.2 µM [cytotoxic, partial curve, poor fit] |
| COc1ccc(NS(=O)(=O)c2ccc3c(c2)[C@H]2C=CC[C@H]2[C@@H](c2ccc(C(=O)O)cc2)N3)cc1 |  | inconclusive: 29.1 µM [rising, single point] |
| Cc1ccccc1Nc1nc(CSc2nnc(-c3ccoc3C)n2C)cs1 |  | inconclusive: 11.2 µM [cytotoxic, partial curve, poor fit] |
| COc1cc(/C=C/C(=O)O)cc(Br)c1O | inactive: 2.48% |  |
| CCOc1ccc2nc(Cl)c(CN(C(=O)c3cnccn3)C3CCCC3)cc2c1 |  | inconclusive: 3.26 µM [cytotoxic, partial curve, poor fit] |
| CC1CCN(C(=O)CN2C(=O)C(C)(C)Oc3ccc(C(=O)NC4CCCC4)cc32)CC1 | inactive: 13.9% |  |
| O=C1C=C(NCc2ccccc2)c2ccccc2C1=O |  | inconclusive: 29.1 µM [cytotoxic, single point] |
| CN(C)NC(=S)Nc1ccc2nc(-c3ccccn3)c(-c3ccccn3)nc2c1 |  | inconclusive: 29.1 µM [cytotoxic, single point] |
| N#Cc1c(N)nc2c(c1-c1cccs1)CCCC2 | inactive: 10.9% |  |
| C/C(Cc1ccccc1)=N\NC(=O)CNC(=O)c1ccccc1 |  | inconclusive: 29.1 µM [rising, single point] |
| CCOc1ccc(NC(=O)[C@@H](c2ccccc2)N2Cc3ccccc3C2=O)cc1 | inactive: 0.679% |  |
| Cc1ccccc1C(=O)N1CCN(c2ccc(NC(=O)CSc3ccc(Cl)cc3)cc2)CC1 |  | inconclusive: 8.2 µM [cytotoxic, partial curve] |
| Cc1ccc(-c2ccc(SCC(=O)N3CCN(c4ccccc4)CC3)nn2)cc1 |  | inconclusive: 5.8 µM [cytotoxic, partial curve] |
| Cc1cc(OCC(=O)Nc2ccccc2N2CCOCC2)c(C(C)C)cc1Cl |  | inconclusive: 14.6 µM [cytotoxic, partial curve, poor fit] |
| CCN1CCN(c2ccc(S(=O)(=O)N3CCCCC3)cc2NC(=O)c2cccc(Cl)c2)CC1 | inactive: 13.9% |  |

| SMILES | activity change, negative = cytotoxicity | Potency |
| --- | --- | --- |
| COC(=O)C1(CC2CC(c3cccc(Br)c3)=NO2)CCN(C(=O)OC(C)(C)C)CC1 (stereo unspecified) | inactive: -22.9% |  |
| CCC(=O)Nc1ccc(CC)cc1-c1nc2ccccc2n(CC(=O)c2ccc(OC)cc2)c1=O | inactive: 13.5% |  |
| O=C(CSc1ncccc1-c1nc2ccccc2[nH]1)Nc1ccc2c(c1)OCCO2 |  | active: 9.2 µM |
| COc1ccc2c(CCNC(=O)c3ccco3)c[nH]c2c1 |  | inconclusive: 16.4 µM [cytotoxic, partial curve, poor fit] |
| CCn1c(CCNC(=O)c2ccc(OC)c(OC)c2)nc2ccccc21 |  | active: 3.66 µM |
| O=C(CCc1ccccc1)NNC(=O)Nc1ccc(Br)cc1 | inactive: 25.5% |  |
| CC(C)C[C@@H](COc1ccccc1)N1CCN(C)CCC1=O |  | inconclusive: 18.4 µM [cytotoxic, single point] |
| O=C(NC(=S)Nc1ccc(NC(=O)c2cccs2)cc1)c1ccco1 | inactive: 2.37% |  |
| Cc1nn(-c2ccccc2)c(N2CCCC2)c1/C=N/NC(=O)c1cc(-c2ccccc2)nc2ccccc12 | inactive: -1.35% |  |
| O=C(CCCNS(=O)(=O)c1cccc2nsnc12)NCc1ccc(F)cc1 |  | inconclusive: 23.1 µM [cytotoxic, partial curve] |
| Cc1ccc(-c2cc(NC(=O)c3cccc(C)c3)on2)cc1 |  | inconclusive: 18.4 µM [rising, partial curve, poor fit] |
| Cc1cc(/C=C(\C#N)C(N)=O)c(C)n1-c1ccc(N2CCOCC2)c([N+](=O)[O-])c1 |  | inconclusive: 23.1 µM [cytotoxic, single point] |
| O=C(O)CCCC(=O)OCc1c(-c2ccccc2)ncc2ccccc12 | inactive: 7.59% |  |
| CN1CCN(Cc2nc3c(c(=O)[nH]c(=O)n3C)n2CCc2ccccc2)CC1 |  | inconclusive: 29.1 µM [cytotoxic, single point] |
| COc1ccc(S(=O)(=O)Nc2c(C)cccc2C)cc1-n1cnnn1 |  | inconclusive: 25.9 µM [cytotoxic, single point] |
| CC(=O)Oc1ccc(N2C(=O)C3C(C2=O)C2C=CC3C23CC3)cc1[N+](=O)[O-] (stereo unspecified) |  | inconclusive: 29.1 µM [rising, single point] |
| CCNc1nc(NCC)nc(N(CC)C(N)=S)n1 |  | inconclusive: 29.1 µM [rising, single point] |
| COc1cc(C(=O)N2CCN(c3cccc(C)c3C)CC2)cc(OC)c1OC |  | active: 2.59 µM |
| COC(=O)c1ccc2nc(-c3ccc(C#N)cc3)c(Cc3cccc(Cl)c3)n2c1 |  | inconclusive: 9.2 µM [cytotoxic, partial curve, poor fit] |
| CNC(=O)CSc1nnc(-c2ccc(S(=O)(=O)N3CCCC3)cc2)n1-c1cccc(C)c1C |  | inconclusive: 23.1 µM [cytotoxic, partial curve] |
| CCc1ccc(NC(=O)CSc2nnc(-c3ccccn3)n2C)cc1 | inactive: 4.6% |  |
| CC1CCCCN1CCCNc1ccc(C(CC(N)=O)NC(=O)Cc2cccc3ccccc23)cc1[N+](=O)[O-] (stereo unspecified) |  | inconclusive: 1.3 µM [rising, full curve, poor fit] |
| CCOc1cc(CNc2ccc(S(N)(=O)=O)cc2)ccc1OCC(=O)NC(C)(C)C | inactive: 10.3% |  |
